Data reported in the supplement of paper PMC8728848.
The list shows a part of the results.

Experiments:
Assay in all cases: glycan array binding signal (z-score within array); higher = stronger binding
Conditions in all cases: glycan notation: IUPAC condensed, linker removed
[1] = molecular target: Gal(b1-4)GlcNAc(b1-2)[Gal(b1-4)GlcNAc(b1-6)]Man(a1-6)[Gal(b1-4)GlcNAc(b1-2)Man(a1-3)]Man(b1-4)GlcNAc(b1-4)[Fuc(a1-6)]GlcNAc
Summary of the method: (§1)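 Glycan array binding is given as a within-array Z-score, which can be read as non-binding when negative. The arrays, 3228 of them, came from the Consortium for Functional Glycomics database and were retained only where the protein sequence was available. Z-scores were averaged across arrays of the same protein sequence at different concentrations or buffers and across linkers.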

[2] = molecular target: Gal(b1-4)GlcNAc(b1-2)[Gal(b1-4)GlcNAc(b1-6)]Man(a1-6)[GlcNAc(b1-4)][Gal(b1-4)GlcNAc(b1-2)Man(a1-3)]Man(b1-4)GlcNAc(b1-4)GlcNAc
Summary of the method: as §1

[3] = molecular target: Gal(b1-4)GlcNAc(b1-2)[Gal(b1-4)GlcNAc(b1-6)]Man(a1-6)[GlcNAc(b1-4)][Gal(b1-4)GlcNAc(b1-2)[Gal(b1-4)GlcNAc(b1-4)]Man(a1-3)]Man(b1-4)GlcNAc(b1-4)[Fuc(a1-6)]GlcNAc
Summary of the method: as §1

[4] = molecular target: Gal(b1-4)GlcNAc(b1-3)Gal(b1-3)GalNAc
Summary of the method: as §1

[5] = molecular target: Gal(b1-4)GlcNAc(b1-3)Gal(b1-3)GlcNAc
Summary of the method: as §1

[6] = molecular target: Gal(b1-4)GlcNAc(b1-3)Gal(b1-4)Glc
Summary of the method: as §1

[7] = molecular target: Gal(b1-4)GlcNAc(b1-3)Gal(b1-4)GlcNAc
Summary of the method: as §1

[8] = molecular target: Gal(b1-4)GlcNAc(b1-3)Gal(b1-4)GlcNAc(b1-2)Man(a1-3)[Gal(b1-4)GlcNAc(b1-3)Gal(b1-4)GlcNAc(b1-2)Man(a1-6)]Man(b1-4)GlcNAc(b1-4)GlcNAc
Summary of the method: as §1

[9] = molecular target: Gal(b1-4)GlcNAc(b1-3)Gal(b1-4)GlcNAc(b1-2)Man(a1-3)[Gal(b1-4)GlcNAc(b1-3)Gal(b1-4)GlcNAc(b1-2)Man(a1-6)]Man(b1-4)GlcNAc(b1-4)[Fuc(a1-6)]GlcNAc
Summary of the method: as §1

[10] = molecular target: Gal(b1-4)GlcNAc(b1-3)Gal(b1-4)GlcNAc(b1-2)[Gal(b1-4)GlcNAc(b1-3)Gal(b1-4)GlcNAc(b1-6)]Man(a1-6)[Gal(b1-4)GlcNAc(b1-3)Gal(b1-4)GlcNAc(b1-2)Man(a1-3)]Man(b1-4)GlcNAc(b1-4)GlcNAc
Summary of the method: as §1

[11] = molecular target: Gal(b1-4)GlcNAc(b1-3)Gal(b1-4)GlcNAc(b1-2)[Gal(b1-4)GlcNAc(b1-3)Gal(b1-4)GlcNAc(b1-6)]Man(a1-6)[Gal(b1-4)GlcNAc(b1-3)Gal(b1-4)GlcNAc(b1-2)Man(a1-3)]Man(b1-4)GlcNAc(b1-4)[Fuc(a1-6)]GlcNAc
Summary of the method: as §1

[12] = molecular target: Gal(b1-4)GlcNAc(b1-3)Gal(b1-4)GlcNAc(b1-3)Gal(b1-4)GlcNAc
Summary of the method: as §1

[13] = molecular target: Gal(b1-4)GlcNAc(b1-3)Gal(b1-4)GlcNAc(b1-3)Gal(b1-4)GlcNAc(b1-2)Man(a1-3)[Gal(b1-4)GlcNAc(b1-3)Gal(b1-4)GlcNAc(b1-3)Gal(b1-4)GlcNAc(b1-2)Man(a1-6)]Man(b1-4)GlcNAc(b1-4)GlcNAc
Summary of the method: as §1

[14] = molecular target: Gal(b1-4)GlcNAc(b1-3)Gal(b1-4)GlcNAc(b1-3)Gal(b1-4)GlcNAc(b1-2)Man(a1-3)[Gal(b1-4)GlcNAc(b1-3)Gal(b1-4)GlcNAc(b1-3)Gal(b1-4)GlcNAc(b1-2)Man(a1-6)]Man(b1-4)GlcNAc(b1-4)[Fuc(a1-6)]GlcNAc
Summary of the method: as §1

[15] = molecular target: Gal(b1-4)GlcNAc(b1-3)Gal(b1-4)GlcNAc(b1-3)Gal(b1-4)GlcNAc(b1-2)[Gal(b1-4)GlcNAc(b1-3)Gal(b1-4)GlcNAc(b1-3)Gal(b1-4)GlcNAc(b1-6)]Man(a1-6)[Gal(b1-4)GlcNAc(b1-3)Gal(b1-4)GlcNAc(b1-3)Gal(b1-4)GlcNAc(b1-2)Man(a1-3)]Man(b1-4)GlcNAc(b1-4)[Fuc(a1-6)]GlcNAc
Summary of the method: as §1

[16] = molecular target: Gal(b1-4)GlcNAc(b1-3)Gal(b1-4)GlcNAc(b1-3)Gal(b1-4)GlcNAc(b1-3)Gal(b1-4)GlcNAc(b1-2)Man(a1-3)[Gal(b1-4)GlcNAc(b1-3)Gal(b1-4)GlcNAc(b1-3)Gal(b1-4)GlcNAc(b1-3)Gal(b1-4)GlcNAc(b1-2)Man(a1-6)]Man(b1-4)GlcNAc(b1-4)GlcNAc
Summary of the method: as §1

[17] = molecular target: Gal(b1-4)GlcNAc(b1-3)Gal(b1-4)GlcNAc(b1-3)Gal(b1-4)GlcNAc(b1-3)Gal(b1-4)GlcNAc(b1-2)Man(a1-3)[Gal(b1-4)GlcNAc(b1-3)Gal(b1-4)GlcNAc(b1-3)Gal(b1-4)GlcNAc(b1-3)Gal(b1-4)GlcNAc(b1-2)Man(a1-6)]Man(b1-4)GlcNAc(b1-4)[Fuc(a1-6)]GlcNAc
Summary of the method: as §1

[18] = molecular target: Gal(b1-4)GlcNAc(b1-3)Gal(b1-4)GlcNAc(b1-3)Gal(b1-4)GlcNAc(b1-3)Gal(b1-4)GlcNAc(b1-2)[Gal(b1-4)GlcNAc(b1-3)Gal(b1-4)GlcNAc(b1-3)Gal(b1-4)GlcNAc(b1-3)Gal(b1-4)GlcNAc(b1-6)]Man(a1-6)[Gal(b1-4)GlcNAc(b1-3)Gal(b1-4)GlcNAc(b1-3)Gal(b1-4)GlcNAc(b1-3)Gal(b1-4)GlcNAc(b1-2)Man(a1-3)]Man(b1-4)GlcNAc(b1-4)[Fuc(a1-6)]GlcNAc
Summary of the method: as §1

[19] = molecular target: Gal(b1-4)GlcNAc(b1-3)Gal(b1-4)GlcNAc(b1-3)Gal(b1-4)GlcNAc(b1-3)Gal(b1-4)GlcNAc(b1-3)Gal(b1-4)GlcNAc(b1-2)Man(a1-3)[Gal(b1-4)GlcNAc(b1-3)Gal(b1-4)GlcNAc(b1-3)Gal(b1-4)GlcNAc(b1-3)Gal(b1-4)GlcNAc(b1-3)Gal(b1-4)GlcNAc(b1-2)Man(a1-6)]Man(b1-4)GlcNAc(b1-4)GlcNAc
Summary of the method: as §1

[20] = molecular target: Gal(b1-4)GlcNAc(b1-3)Gal(b1-4)GlcNAc(b1-3)Gal(b1-4)GlcNAc(b1-3)Gal(b1-4)GlcNAc(b1-3)Gal(b1-4)GlcNAc(b1-2)Man(a1-3)[Gal(b1-4)GlcNAc(b1-3)Gal(b1-4)GlcNAc(b1-3)Gal(b1-4)GlcNAc(b1-3)Gal(b1-4)GlcNAc(b1-3)Gal(b1-4)GlcNAc(b1-2)Man(a1-6)]Man(b1-4)GlcNAc(b1-4)[Fuc(a1-6)]GlcNAc
Summary of the method: as §1

[21] = molecular target: Gal(b1-4)GlcNAc(b1-3)Gal(b1-4)GlcNAc(b1-3)Gal(b1-4)GlcNAc(b1-3)Gal(b1-4)GlcNAc(b1-3)Gal(b1-4)GlcNAc(b1-2)[Gal(b1-4)GlcNAc(b1-3)Gal(b1-4)GlcNAc(b1-3)Gal(b1-4)GlcNAc(b1-3)Gal(b1-4)GlcNAc(b1-3)Gal(b1-4)GlcNAc(b1-6)]Man(a1-6)[Gal(b1-4)GlcNAc(b1-3)Gal(b1-4)GlcNAc(b1-3)Gal(b1-4)GlcNAc(b1-3)Gal(b1-4)GlcNAc(b1-3)Gal(b1-4)GlcNAc(b1-2)Man(a1-3)]Man(b1-4)GlcNAc(b1-4)[Fuc(a1-6)]GlcNAc
Summary of the method: as §1

[22] = molecular target: Gal(b1-4)GlcNAc(b1-3)Gal(b1-4)GlcNAc(b1-3)Gal(b1-4)GlcNAc(b1-3)Gal(b1-4)GlcNAc(b1-3)Gal(b1-4)GlcNAc(b1-3)Gal(b1-4)GlcNAc(b1-2)Man(a1-3)[Gal(b1-4)GlcNAc(b1-3)Gal(b1-4)GlcNAc(b1-3)Gal(b1-4)GlcNAc(b1-3)Gal(b1-4)GlcNAc(b1-3)Gal(b1-4)GlcNAc(b1-3)Gal(b1-4)GlcNAc(b1-2)Man(a1-6)]Man(b1-4)GlcNAc(b1-4)GlcNAc
Summary of the method: as §1

[23] = molecular target: Gal(b1-4)GlcNAc(b1-3)Gal(b1-4)GlcNAc(b1-3)GalNAc
Summary of the method: as §1

B1: EfCBM33A (Enterococcus faecalis), Q838S1 (protein)
chain: MKKSLLTIVLAFSFVLGGAALAPTVSEAHGYVASPGSRAFFGSSAGGNLNTNVGRAQWEPQSIEAPKNTFITGKLASAGVSGFEPLDEQTATRWHKTNITTGPLDITWNLTAQHRTASWDYYITKNGWNPNQPLDIKNFDKIASIDGKQEVPNKVVKQTINIPTDRKGYHVIYAVWGIGDTVNAFYQAIDVNIQ
glycan array binding signal (z-score) [1]: -0.261
glycan array binding signal (z-score) [2]: -1.46
glycan array binding signal (z-score) [3]: -0.148
glycan array binding signal (z-score) [4]: 0.264
glycan array binding signal (z-score) [5]: -0.608
glycan array binding signal (z-score) [6]: 1.37
glycan array binding signal (z-score) [7]: -0.84
glycan array binding signal (z-score) [8]: 0.408
glycan array binding signal (z-score) [9]: 0.262
glycan array binding signal (z-score) [10]: 0.19
glycan array binding signal (z-score) [11]: 1.31
glycan array binding signal (z-score) [12]: -0.24
glycan array binding signal (z-score) [13]: 1.45
glycan array binding signal (z-score) [14]: 0.858
glycan array binding signal (z-score) [15]: -0.199
glycan array binding signal (z-score) [16]: 1.57
glycan array binding signal (z-score) [17]: 0.279
glycan array binding signal (z-score) [18]: 0.765
glycan array binding signal (z-score) [19]: 1.29
glycan array binding signal (z-score) [20]: 8.45
glycan array binding signal (z-score) [21]: 1.59
glycan array binding signal (z-score) [22]: 0.009
glycan array binding signal (z-score) [23]: -0.446
